In the supplement of paper PMC3334620:
The full ranking holds about 33,000 sequences; the median of “E-score (-0.5 to 0.5)” is about -0.0014, and the highest 2% start at about 0.25. This is one part of the list.

These sequences were tested against T1, Cad1 (UniProt P24813) (assay: PBM E-score (8-mer binding enrichment) (E-score (-0.5 to 0.5)); higher = stronger / more preferred TF binding). Details: protein concentration: 100 nM; construct: GST-full length.
T1 sequence: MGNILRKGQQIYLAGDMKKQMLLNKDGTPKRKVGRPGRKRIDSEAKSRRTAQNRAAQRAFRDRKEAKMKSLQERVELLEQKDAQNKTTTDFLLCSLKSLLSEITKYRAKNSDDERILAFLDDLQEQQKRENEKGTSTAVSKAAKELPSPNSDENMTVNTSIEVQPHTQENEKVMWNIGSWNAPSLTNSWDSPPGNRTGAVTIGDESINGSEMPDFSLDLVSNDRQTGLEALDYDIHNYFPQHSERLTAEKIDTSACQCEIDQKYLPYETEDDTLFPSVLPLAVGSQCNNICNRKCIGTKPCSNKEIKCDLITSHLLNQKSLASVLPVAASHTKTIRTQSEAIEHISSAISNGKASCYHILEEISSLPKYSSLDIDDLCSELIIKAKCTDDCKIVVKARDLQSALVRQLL
Outline: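 Each ungapped eight-base word and its reverse complement, pooled, received an E-score from the Universal PBM Analysis Suite. Underlying scans, normalised with masliner, recorded fluorescent anti-GST bound to GST-tagged yeast transcription factors. These were applied at about 100-200 nM to universal all-10-mer Agilent arrays double-stranded by primer extension.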

Row | Sequence | PBM E-score
1 | TAACGTAA | 0.225
2 | ACACGCGA | 0.143
3 | CCCGGACA | 0.039
4 | TAGATTCA | -0.0561
5 | AAAGTCCG | 0.0869
6 | AACTTGGT | 0.0836
7 | AGACTGAA | -0.102
8 | CCCGTTCG | 0.016
9 | ACCTCCAT | -0.189
10 | GTCGGTCA | -0.12
11 | CACGAGAC | 0.0717
12 | CCGAACTA | -0.0237
13 | ATTCAGAG | 0.127
14 | CGTATCAG | 0.0211
15 | AGAATCGA | 0.0389
16 | ACGCCTAG | -0.161
17 | AAACGGTT | -0.117
18 | CGGGTCAC | -0.088
19 | AAACGAAT | 0.017
20 | AGAACGAC | -0.0636
21 | CAGTAAGG | -0.084
22 | CTTAGCGC | 0.243

7 entries drawn at random from the list so far:
Row | Sequence | PBM E-score
1 | TAACGTAA | 0.225
18 | CGGGTCAC | -0.088
19 | AAACGAAT | 0.017
21 | CAGTAAGG | -0.084
4 | TAGATTCA | -0.0561
2 | ACACGCGA | 0.143
20 | AGAACGAC | -0.0636

Additional entries follow:

Row | Sequence | PBM E-score
23 | CGCTCGAC | -0.178
24 | CTCCTGAC | 0.0488
25 | TCGGATCA | 0.166
26 | CAGGTATG | -0.062
27 | AGTATTGG | -0.102
28 | ACCGTGCT | -0.0978
29 | GGACCGCC | -0.204
30 | AAAGGATG | 0.0537
31 | GAGTTCAC | 0.144
32 | AAAAAGCA | 0.0714
33 | TACCAATA | 0.123
34 | TCACTACA | 0.224
35 | CCCCCTAA | -0.347
36 | AAAGTCAC | -0.0757
37 | CCACATAG | -0.104
38 | GCGGGACA | 0.149
39 | AGTTACAT | -0.122
40 | CGTGGCGC | -0.0933
41 | CTGCTAAA | 0.0566
42 | AGATGGTA | -0.0232
43 | CAAGGGAC | -0.0828
44 | CACGGGTA | 0.0219

Row | Sequence | PBM E-score
45 | AAACGTAA | 0.139
46 | ATATCACA | -0.0323
47 | ACCCTTAG | -0.125
48 | TATTCAGA | 0.137
49 | ATCGTTCC | -0.109
50 | AGCGTCTG | -0.0442
51 | AGACCATG | -0.219
52 | CTTTCGAA | -0.162
53 | ATAGGTAC | -0.0816
54 | ACCTAGGG | -0.0226
55 | AGAACTTA | 0.194
56 | GTTAGAGA | -0.156
57 | AATTCCCA | 0.0646
58 | CTCTACTC | -0.1
59 | AAACTAGA | -0.0395
60 | AGGCTAGC | -0.136
61 | AGTTCTAG | 0.0566
62 | AACTTCAC | 0.17
63 | CCCTTTCG | -0.0518
64 | AAAGACAC | -0.065
65 | ATACTACC | 0.0181
66 | CAGCCAAG | -0.0374

Row | Sequence | PBM E-score
67 | AACTGGGG | -0.238
68 | ATGTAACG | 0.257
69 | GATGAACC | -0.0181
70 | GATGGGCC | -0.0485
71 | ATAGTCCG | 0.128
72 | CGAACAAC | 0.125
73 | ATAATACA | 0.263
74 | CGTCAGCC | 0.168
75 | AGTCATAG | 0.0922
76 | TAAGAGAA | 0.013
77 | TGAACACA | 0.0608
78 | GATGGCTA | -0.079
79 | CGGCTAAG | 0.0298
80 | CTCGAGGC | 0.127
81 | AAAGCTAG | -0.0889
82 | CCGGCACG | 0.0437
83 | GGGTCCCA | -0.117
84 | CCCCGCAG | -0.126
85 | ACGAAAAA | -0.045
86 | CCTCTATA | 0.0137
